Results are given in words; binding and its absence hold for the method and conditions named. Binding seen in cells or lysates may run through a third protein. Some binding calls cover weakened binding; strength is not graded here.

Protein sequences, listed by entry. Tags and fused reporters are not part of them. Residues count along the entry.
UniProt P10451, residues 17-314: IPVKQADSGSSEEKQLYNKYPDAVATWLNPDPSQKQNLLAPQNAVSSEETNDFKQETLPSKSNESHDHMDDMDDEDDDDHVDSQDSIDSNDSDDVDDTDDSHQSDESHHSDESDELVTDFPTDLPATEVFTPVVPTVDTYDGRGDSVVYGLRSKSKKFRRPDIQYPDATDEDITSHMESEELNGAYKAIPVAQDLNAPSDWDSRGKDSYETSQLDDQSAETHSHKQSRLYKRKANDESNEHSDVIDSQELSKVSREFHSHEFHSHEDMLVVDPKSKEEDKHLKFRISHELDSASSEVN
UniProt Q04912, residues 25-1400: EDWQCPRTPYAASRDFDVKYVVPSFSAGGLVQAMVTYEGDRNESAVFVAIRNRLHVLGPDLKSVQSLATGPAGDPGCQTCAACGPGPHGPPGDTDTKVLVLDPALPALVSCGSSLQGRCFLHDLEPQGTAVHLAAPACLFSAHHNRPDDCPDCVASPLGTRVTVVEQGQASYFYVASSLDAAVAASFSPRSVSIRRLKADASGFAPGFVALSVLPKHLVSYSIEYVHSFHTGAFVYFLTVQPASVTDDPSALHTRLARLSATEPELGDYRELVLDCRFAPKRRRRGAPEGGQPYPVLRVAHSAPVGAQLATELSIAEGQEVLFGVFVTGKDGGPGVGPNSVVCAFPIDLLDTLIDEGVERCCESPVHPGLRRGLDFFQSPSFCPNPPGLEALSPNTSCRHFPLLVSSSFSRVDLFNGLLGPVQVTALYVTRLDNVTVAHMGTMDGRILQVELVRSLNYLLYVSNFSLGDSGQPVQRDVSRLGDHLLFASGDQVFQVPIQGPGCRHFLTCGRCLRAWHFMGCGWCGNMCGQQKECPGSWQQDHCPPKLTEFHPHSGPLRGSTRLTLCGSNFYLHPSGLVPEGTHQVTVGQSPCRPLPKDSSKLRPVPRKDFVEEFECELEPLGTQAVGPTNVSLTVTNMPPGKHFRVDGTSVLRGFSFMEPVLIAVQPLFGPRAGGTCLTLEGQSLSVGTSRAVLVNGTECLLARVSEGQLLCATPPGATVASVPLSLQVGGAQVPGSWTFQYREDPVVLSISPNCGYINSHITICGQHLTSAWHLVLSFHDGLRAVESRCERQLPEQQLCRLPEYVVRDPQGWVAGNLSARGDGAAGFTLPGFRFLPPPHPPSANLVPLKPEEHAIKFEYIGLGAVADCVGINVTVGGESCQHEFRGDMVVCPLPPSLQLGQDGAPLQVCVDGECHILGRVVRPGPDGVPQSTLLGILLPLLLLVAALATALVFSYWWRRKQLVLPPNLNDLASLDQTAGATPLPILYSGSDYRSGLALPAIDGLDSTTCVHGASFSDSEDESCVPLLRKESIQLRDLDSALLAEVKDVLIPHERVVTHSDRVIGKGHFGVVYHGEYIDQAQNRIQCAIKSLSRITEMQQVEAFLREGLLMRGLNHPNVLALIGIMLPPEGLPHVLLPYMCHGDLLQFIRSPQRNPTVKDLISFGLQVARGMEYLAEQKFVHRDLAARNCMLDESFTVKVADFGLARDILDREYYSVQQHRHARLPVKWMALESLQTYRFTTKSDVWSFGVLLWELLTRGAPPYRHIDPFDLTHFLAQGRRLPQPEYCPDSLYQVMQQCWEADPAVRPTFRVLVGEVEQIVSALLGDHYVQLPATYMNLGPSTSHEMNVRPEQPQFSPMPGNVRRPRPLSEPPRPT

In this experiment the target is Osteopontin (human (endogenous in A549)) (UniProt P10451). Nature of the experiment: co-IP; IP of OPN with an anti-OPN antibody from whole cell lysate of A549 cells; irrelevant IgG as control; western blotting of the precipitate.

“Recepteur d'Origine Nantais (from UniProt Q04912 25-1400) (receptor)”: the binding result is listed as “binds”.

Source of the values: paper PMC6889187.
